Among the data in PMC7429872 are binding values, retold here.

The chains behind the UniProt entries cited, without tags or fusion partners.
UniProt P53566: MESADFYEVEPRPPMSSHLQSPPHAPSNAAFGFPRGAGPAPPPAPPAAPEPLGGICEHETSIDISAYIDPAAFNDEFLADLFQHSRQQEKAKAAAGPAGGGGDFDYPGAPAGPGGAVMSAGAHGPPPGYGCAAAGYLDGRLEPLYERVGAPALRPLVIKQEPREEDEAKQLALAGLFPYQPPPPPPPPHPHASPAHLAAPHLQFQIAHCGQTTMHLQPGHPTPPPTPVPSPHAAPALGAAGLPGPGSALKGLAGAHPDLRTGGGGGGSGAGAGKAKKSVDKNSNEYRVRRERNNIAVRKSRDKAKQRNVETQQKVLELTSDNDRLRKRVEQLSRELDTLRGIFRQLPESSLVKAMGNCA
UniProt P37238: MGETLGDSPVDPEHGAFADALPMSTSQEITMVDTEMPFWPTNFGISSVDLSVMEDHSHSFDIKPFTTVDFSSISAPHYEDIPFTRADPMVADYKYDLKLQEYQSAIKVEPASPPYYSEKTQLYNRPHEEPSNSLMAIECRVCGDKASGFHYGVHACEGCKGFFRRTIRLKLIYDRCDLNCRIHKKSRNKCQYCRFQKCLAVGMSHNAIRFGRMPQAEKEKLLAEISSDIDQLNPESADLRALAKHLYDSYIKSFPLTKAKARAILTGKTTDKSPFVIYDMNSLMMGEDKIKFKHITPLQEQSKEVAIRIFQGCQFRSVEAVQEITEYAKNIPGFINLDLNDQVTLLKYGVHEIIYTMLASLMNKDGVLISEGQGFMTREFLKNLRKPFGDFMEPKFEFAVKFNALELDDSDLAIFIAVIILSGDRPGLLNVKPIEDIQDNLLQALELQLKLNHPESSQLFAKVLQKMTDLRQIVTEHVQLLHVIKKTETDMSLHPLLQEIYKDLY

Where two headings read alike, the source gives them in different places. No constants are given. Whether binding was seen depends on the method and setting. Binding seen in cells or lysates may run through a third protein. Some binding calls cover weakened binding; strength is not graded here. Tags and fused reporters may be left off the sequences shown.

Experiment [1] addresses T1, flag-tagged HSPA12A (heat shock protein A12A) (mouse) (UniProt Q8K0U4).
T1 sequence: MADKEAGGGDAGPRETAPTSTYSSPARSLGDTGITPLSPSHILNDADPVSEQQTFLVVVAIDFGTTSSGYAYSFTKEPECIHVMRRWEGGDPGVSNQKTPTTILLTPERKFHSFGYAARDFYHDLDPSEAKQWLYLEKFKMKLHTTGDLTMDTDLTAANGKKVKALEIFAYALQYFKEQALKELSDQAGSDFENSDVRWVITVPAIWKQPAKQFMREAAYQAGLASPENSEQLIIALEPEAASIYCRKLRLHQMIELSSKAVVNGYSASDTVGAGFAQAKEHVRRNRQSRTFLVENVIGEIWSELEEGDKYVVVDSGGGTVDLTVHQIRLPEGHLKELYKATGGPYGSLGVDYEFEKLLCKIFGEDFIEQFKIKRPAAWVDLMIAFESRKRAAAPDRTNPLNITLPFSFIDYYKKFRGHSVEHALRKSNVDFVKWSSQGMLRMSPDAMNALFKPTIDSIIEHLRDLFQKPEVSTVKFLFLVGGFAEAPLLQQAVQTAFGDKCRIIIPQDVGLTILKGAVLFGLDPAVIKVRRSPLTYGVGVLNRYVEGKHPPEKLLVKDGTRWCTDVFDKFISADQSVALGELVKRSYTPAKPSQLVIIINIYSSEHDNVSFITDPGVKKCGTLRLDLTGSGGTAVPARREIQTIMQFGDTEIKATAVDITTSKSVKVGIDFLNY
Kind of experiment: co-IP; WT primary mouse hepatocytes overexpressing flag-tagged HSPA12A (adenovirus), LPS 500 ng/ml for 6 h; cellular protein extracts precipitated with anti-flag antibody, blotted for C/EBPα, PPARγ, PGC-1α and HSPA12A; IgG and empty-virus (NC) controls.

The target in experiment [2] is T1, flag-tagged HSPA12A (heat shock protein A12A) (mouse). Described as above. The source holds these as a separate data set.

Regarding “CCAAT/enhancer-binding protein alpha (C/EBPα) (from UniProt P53566 1-359)”, in experiment [1], the binding entry is reported as “no binding”.

On to “peroxisome proliferator-activated receptor gamma (PPARγ) (from UniProt P37238 1-505)”, for which the binding result in experiment [1] is listed as “no binding”.

B1: peroxisome proliferator-activated receptor γ coactivator 1α (PGC-1α) of 113 kDa (protein, UniProt O70343 1-797)
chain: MAWDMCSQDSVWSDIECAALVGEDQPLCPDLPELDLSELDVNDLDTDSFLGGLKWCSDQSEIISNQYNNEPANIFEKIDEENEANLLAVLTETLDSLPVDEDGLPSFDALTDGAVTTDNEASPSSMPDGTPPPQEAEEPSLLKKLLLAPANTQLSYNECSGLSTQNHAANHTHRIRTNPAIVKTENSWSNKAKSICQQQKPQRRPCSELLKYLTTNDDPPHTKPTENRNSSRDKCASKKKSHTQPQSQHAQAKPTTLSLPLTPESPNDPKGSPFENKTIERTLSVELSGTAGLTPPTTPPHKANQDNPFKASPKLKPSCKTVVPPPTKRARYSECSGTQGSHSTKKGPEQSELYAQLSKSSGLSRGHEERKTKRPSLRLFGDHDYCQSLNSKTDILINISQELQDSRQLDFKDASCDWQGHICSSTDSGQCYLRETLEASKQVSPCSTRKQLQDQEIRAELNKHFGHPCQAVFDDKSDKTSELRDGDFSNEQFSKLPVFINSGLAMDGLFDDSEDESDKLSYPWDGTQPYSLFDVSPSCSSFNSPCRDSVSPPKSLFSQRPQRMRSRSRSFSRHRSCSRSPYSRSRSRSPGSRSSSRSCYYYESSHYRHRTHRNSPLYVRSRSRSPYSRRPRYDSYEAYEHERLKRDEYRKEHEKRESERAKQRERQKQKAIEERRVIYVGKIRPDTTRTELRDRFEVFGEIEECTVNLRDDGDSYGFITYRYTCDAFAALENGYTLRRSNETDFELYFCGRKQFFKSNYADLDTNSDDFDPASTKSKYDSLDFDSLLKEAQRSLRR
In the case of B1, the binding entry in experiment [2] is listed as “binds”.
